PubChem BioAssay AID1159578 – Peter MacCallum Cancer Centre – 2015
Purpose: 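Knock-downs that alter how fast lymphatic endothelial cells migrate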 (primary screen). Cells: human lymphatic endothelial cells. Reagent: siRNA pool against human genes, 40 nM. Time to read-out: 48 h after transfection. Detection: 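High-content imaging of dye-stained cells in a scratch assay measures filled wound area and nuclei per well; duplicate means given as ratio to mock and robust z-score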. Direction: migration robust z-score: higher = faster migration into the scratch; migration relative to mock: higher = more scratch area covered than mock; nuclei per well: higher = more cells in the well. Rule for the call: 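Pools averaging fewer than 3300 nuclei are never called; remaining pools count as changed when migration robust z lies outside -2 to 2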. Calls: active = migration changed; inactive = no migration change, or too few cells.
Here is a random part of about 18,000 reagents. About 1,030 of them (5.7%) were called active. 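Inactive calls also include pools with fewer than 3300 nuclei, whose migration was not assessed.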 The raw values are shown without normalisation. A number with no mark means an inactive call.

| Target gene | migration robust z-score | migration class with cell-count check | migration relative to mock | nuclei per well, duplicate mean |
| --- | --- | --- | --- | --- |
| SH3BP5L (GeneID 80851) | -1.36 | migration z between -2 and 2; enough cells | 0.53 | 6072 |
| KLRF1 (GeneID 51348) | 0.57 | migration z between -2 and 2; enough cells | 0.92 | 5804 |
| XAGE5 (GeneID 170627) | 0.5 | migration z between -2 and 2; enough cells | 1.02 | 5489 |
| STEEP1 (GeneID 63932) | 0.86 | migration z between -2 and 2; enough cells | 1.11 | 5868 |
| MRPS7 (GeneID 51081) | 1.22 | migration z between -2 and 2; enough cells | 1.21 | 7232 |
| OR13H1 (GeneID 347468) | -0.88 | migration z between -2 and 2; enough cells | 0.66 | 6066 |
| NLRP5 (GeneID 126206) | 0.06 | migration z between -2 and 2; enough cells | 0.9 | 4570 |
| SLC25A35 (GeneID 399512) | 0.97 | migration z between -2 and 2; enough cells | 1.14 | 5921 |
| FAF2 (GeneID 23197) | 0.72 | migration z between -2 and 2; enough cells | 1.07 | 6772 |
| TBC1D25 (GeneID 4943) | 2.27 (active) | migration z above 2; enough cells | 1.48 | 5234 |
| DHFR2 (GeneID 200895) | -0.78 | migration z between -2 and 2; enough cells | 0.68 | 5660 |
| VDR (GeneID 7421) | -1.73 | migration z between -2 and 2; enough cells | 0.47 | 5034 |
| EOGT (GeneID 285203) | -0.66 | migration z between -2 and 2; enough cells | 0.72 | 5181 |
| SLC26A11 (GeneID 284129) | -2.34 (active) | migration z below -2; enough cells | 0.36 | 5688 |
| CGNL1 (GeneID 84952) | 1.73 | migration z between -2 and 2; enough cells | 1.33 | 7804 |
| LUC7L2 (GeneID 51631) | 0.52 | migration z between -2 and 2; enough cells | 1.02 | 5654 |
| RPS11 (GeneID 6205) | -0.72 | migration z between -2 and 2; enough cells | 0.7 | 4524 |
| POLR2A (GeneID 5430) | -9.69 | under 3300 nuclei; migration not judged | -1.62 | 1786 |
| PANX2 (GeneID 56666) | -1.4 | migration z between -2 and 2; enough cells | 0.52 | 4344 |
| SAMD1 (GeneID 90378) | 1.14 | migration z between -2 and 2; enough cells | 1.18 | 5475 |
| RPP14 (GeneID 11102) | 0.02 | migration z between -2 and 2; enough cells | 0.81 | 5900 |
| TUBAL3 (GeneID 79861) | -1.33 | migration z between -2 and 2; enough cells | 0.55 | 3882 |
| COG5 (GeneID 10466) | -0.54 | migration z between -2 and 2; enough cells | 0.74 | 5604 |

No new results follow: entries from further up.
| Target gene | migration robust z-score | migration class with cell-count check | migration relative to mock | nuclei per well, duplicate mean |
| --- | --- | --- | --- | --- |
| RPS11 (GeneID 6205) | -0.72 | migration z between -2 and 2; enough cells | 0.7 | 4524 |
| POLR2A (GeneID 5430) | -9.69 | under 3300 nuclei; migration not judged | -1.62 | 1786 |
| PANX2 (GeneID 56666) | -1.4 | migration z between -2 and 2; enough cells | 0.52 | 4344 |
| SAMD1 (GeneID 90378) | 1.14 | migration z between -2 and 2; enough cells | 1.18 | 5475 |
